IC50 data for one compound are collected here from PMC7787731, “Synthesis and Characterization of New Dihydronaphthalene Candidates as Potent Cytotoxic Agents against MCF-7 Human Cancer Cells” (BioMed Research International, 2020).

The structures appear in SMILES notation.

The test system of this test is MCF-7 (human breast adenocarcinoma) cell lines. Description: In vitro cytotoxicity MTT assay against breast cancer MCF-7 cells. Particulars: read-out: IC50 (μM) MCF-7, 0.39-100 μM, 3 days, mean ± SD of three replicates. For orientation: Tetrazolium dyes change colour on reduction, which living cells bring about.

Regarding `CN[C@@H]1C[C@H]2O[C@@](C)([C@@H]1OC)n1c3ccccc3c3c4c(c5c6ccccc6n2c5c31)C(=O)NC4` [Staurosporin, reference compound], the IC50 (usually the concentration that gives 50% inhibition) is 6.08 µM.
